Laboratory results: patent US20250325529A1, “INHIBITORS OF FATTY ACID BINDING PROTEINS (FABPs), METHODS OF USE AND METHODS OF MAKING” (Celloram, inc., priority 2024, published 2025)
The source gives many values for each of these; only a part stands here.

Legend:
[1] = system: Salmonella typhimurium tester strain TA100; experiment: Ames test (Bacterial Reverse Mutation Test), TA100; assay type: cell-based
Method: (§1) PD152 (compound 2) was tested for genotoxic and cytotoxic side effects by Ames test. The Ames test is a Bacterial Reverse Mutation Test of mutagenicity that utilizes Salmonella typhimurium tester strains TA98, TA100, TA1535, TA1537 and Escherichia coli tester strain WP2 uvrA (pKM101), both in the presence and absence of S9.
(§2) The compound PD152 was tested at 10 concentrations (0.032-1000 μg/plate) in the presence of, or absence of, the hepatic enzyme S9.
The aniline FABP4/5 inhibitor compound, 2-((2-((2,4-dichloro-5-isopropoxyphenyl)amino)-2-oxoethyl)thio)-2-methylpropanoic acid (compound “B104” as disclosed in WO2023043803A1) also was tested for genotoxic and cytotoxic side effects by Ames test. B104 was tested using the Salmonella typhimurium tester stains TA98, TA100, TA1535, and TA1537, both in the presence and absence of the hepatic enzyme S9, at 5 concentrations (1.5-64 μg/plate).

[2] = system: Salmonella typhimurium tester strain TA98; experiment: Ames test (Bacterial Reverse Mutation Test), TA98; assay type: cell-based
Method: as §1, §2
The aniline FABP4/5 inhibitor compound, 2-((2-((2,4-dichloro-5-isopropoxyphenyl)amino)-2-oxoethyl)thio)-2-methylpropanoic acid (compound “B104” as disclosed in WO2023043803A1) also was tested for genotoxic and cytotoxic side effects by Ames test. […]

[3] = TA100, absence of S9, 0.0312 μg/plate
[4] = TA100, absence of S9, 0.1 μg/plate
[5] = TA100, absence of S9, 0.316 μg/plate
[6] = TA100, absence of S9, 1 μg/plate
[7] = TA100, absence of S9, 3.16 μg/plate
[8] = TA100, absence of S9, 10 μg/plate
[9] = TA100, absence of S9, 31.6 μg/plate
[10] = TA100, absence of S9, 100 μg/plate
[11] = TA100, absence of S9, 316 μg/plate
[12] = TA100, absence of S9, 1000 μg/plate
[13] = TA100, presence of S9, 0.0312 μg/plate
[14] = TA100, presence of S9, 0.1 μg/plate
[15] = TA100, presence of S9, 0.316 μg/plate
[16] = TA100, presence of S9, 1 μg/plate
[17] = TA100, presence of S9, 3.16 μg/plate
[18] = TA100, presence of S9, 10 μg/plate
[19] = TA100, presence of S9, 31.6 μg/plate
[20] = TA100, presence of S9, 100 μg/plate
[21] = TA100, presence of S9, 316 μg/plate
[22] = TA100, presence of S9, 1000 μg/plate
[23] = TA98, absence of S9, 0.0312 μg/plate
[24] = TA98, absence of S9, 0.1 μg/plate
[25] = TA98, absence of S9, 0.316 μg/plate
[26] = TA98, absence of S9, 1 μg/plate
[27] = TA98, absence of S9, 3.16 μg/plate
[28] = TA98, absence of S9, 10 μg/plate
[29] = TA98, absence of S9, 31.6 μg/plate
[30] = TA98, absence of S9, 100 μg/plate
[31] = TA98, absence of S9, 316 μg/plate
[32] = TA98, absence of S9, 1000 μg/plate

Question: CC(C)Oc1nc(NC(=O)CSCC(=O)O)c(Cl)cc1Cl [PD152, 2-((2-((3,5-dichloro-6-isopropoxypyridin-2-yl)amino)-2-oxoethyl)thio)acetic acid] was tested. Which Fold increase [1, 3] did it give?
Answer: 1

Question: And the “Mean number of revertants” value [1, 3]?
Answer: 39

Question: And the Fold increase [1, 4]?
Answer: 1

Question: And the “Mean number of revertants” value [1, 4]?
Answer: 39

Question: What about the Fold increase [1, 5] of the same molecule?
Answer: 1

Question: What about the “Mean number of revertants” value [1, 5] of the same molecule?
Answer: 40

Question: What about the Fold increase [1, 6] of the same molecule?
Answer: 1

Question: What about the “Mean number of revertants” value [1, 6] of the same molecule?
Answer: 39

Question: And the Fold increase [1, 7]?
Answer: 1

Question: What about the “Mean number of revertants” value [1, 7] of the same molecule?
Answer: 39

Question: What about the Fold increase [1, 8] of the same molecule?
Answer: 1

Question: What about the “Mean number of revertants” value [1, 8] of the same molecule?
Answer: 40

Question: What about the Fold increase [1, 9] of the same molecule?
Answer: 1

Question: And the “Mean number of revertants” value [1, 9]?
Answer: 40

Question: What about the Fold increase [1, 10] of the same molecule?
Answer: 1

Question: And the “Mean number of revertants” value [1, 10]?
Answer: 39

Question: And the Fold increase [1, 11]?
Answer: 1

Question: What about the “Mean number of revertants” value [1, 11] of the same molecule?
Answer: 40

Question: What about the Fold increase [1, 12] of the same molecule?
Answer: 1

Question: And the “Mean number of revertants” value [1, 12]?
Answer: 40

Question: And the Fold increase [1, 13]?
Answer: 1

Question: What about the “Mean number of revertants” value [1, 13] of the same molecule?
Answer: 40

Question: What about the Fold increase [1, 14] of the same molecule?
Answer: 1

Question: And the “Mean number of revertants” value [1, 14]?
Answer: 40

Question: And the Fold increase [1, 15]?
Answer: 1

Question: And the “Mean number of revertants” value [1, 15]?
Answer: 40

Question: And the Fold increase [1, 16]?
Answer: 1

Question: And the “Mean number of revertants” value [1, 16]?
Answer: 39

Question: And the Fold increase [1, 17]?
Answer: 1

Question: What about the “Mean number of revertants” value [1, 17] of the same molecule?
Answer: 40

Question: And the Fold increase [1, 18]?
Answer: 1

Question: And the “Mean number of revertants” value [1, 18]?
Answer: 39

Question: What about the Fold increase [1, 19] of the same molecule?
Answer: 1

Question: What about the “Mean number of revertants” value [1, 19] of the same molecule?
Answer: 40

Question: And the Fold increase [1, 20]?
Answer: 1

Question: And the “Mean number of revertants” value [1, 20]?
Answer: 38

Question: And the Fold increase [1, 21]?
Answer: 1

Question: What about the “Mean number of revertants” value [1, 21] of the same molecule?
Answer: 40

Question: What about the Fold increase [1, 22] of the same molecule?
Answer: 1

Question: And the “Mean number of revertants” value [1, 22]?
Answer: 39

Question: What about the Fold increase [2, 23] of the same molecule?
Answer: 1

Question: And the “Mean number of revertants” value [2, 23]?
Answer: 5

Question: What about the Fold increase [2, 24] of the same molecule?
Answer: 1

Question: What about the “Mean number of revertants” value [2, 24] of the same molecule?
Answer: 6

Question: And the Fold increase [2, 25]?
Answer: 1

Question: And the “Mean number of revertants” value [2, 25]?
Answer: 6

Question: And the Fold increase [2, 26]?
Answer: 1

Question: What about the “Mean number of revertants” value [2, 26] of the same molecule?
Answer: 6

Question: What about the Fold increase [2, 27] of the same molecule?
Answer: 1

Question: And the “Mean number of revertants” value [2, 27]?
Answer: 6

Question: And the Fold increase [2, 28]?
Answer: 1

Question: And the “Mean number of revertants” value [2, 28]?
Answer: 6

Question: And the Fold increase [2, 29]?
Answer: 1

Question: What about the “Mean number of revertants” value [2, 29] of the same molecule?
Answer: 5

Question: What about the Fold increase [2, 30] of the same molecule?
Answer: 1

Question: What about the “Mean number of revertants” value [2, 30] of the same molecule?
Answer: 6

Question: And the Fold increase [2, 31]?
Answer: 1

Question: And the “Mean number of revertants” value [2, 31]?
Answer: 6

Question: And the Fold increase [2, 32]?
Answer: 1

Question: And the “Mean number of revertants” value [2, 32]?
Answer: 6
